PubChem BioAssay AID1259425 | University of Nebraska Medical Center, 2018
Aim: 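Seek colon cancer weak points whose silencing resembles KSR1 loss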 (primary screen). Cell system: HCT116 human colon cancer cells. Knock-down reagent: siRNA pool against human genes, 50 nM siRNA. Measured: 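mRNA of six signature genes measured together by branched-DNA assay after 50 nM siRNA pool, blank removed, divided by geometric mean of two housekeeping genes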. Scale: BNIP3L mRNA: higher = more BNIP3L transcript after knockdown.
Shown is a random part of about 14,000 deposited reagents. Further read-outs or replicates are left out here. The record does not give: the time to read-out.

The first 2 records, to show the layout:
{"target": "SLC9A8", "BNIP3L mRNA, set 1": 0.133}
{"target": "DSCAM", "BNIP3L mRNA, set 1": 0.135}

Results, repeating the preview:
{"target": "SLC9A8", "BNIP3L mRNA, set 1": 0.133}
{"target": "DSCAM", "BNIP3L mRNA, set 1": 0.135}
{"target": "NTN1", "BNIP3L mRNA, set 1": 0.12}
{"target": "H4C14", "BNIP3L mRNA, set 1": 0.0246}
{"target": "USP39", "BNIP3L mRNA, set 1": 0.117}
{"target": "ADAMTS12", "BNIP3L mRNA, set 1": 0.0684}
{"target": "ZFYVE1", "BNIP3L mRNA, set 1": 0.131}
{"target": "RNF14", "BNIP3L mRNA, set 1": 0.0687}
{"target": "KCNMB4", "BNIP3L mRNA, set 1": 0.0865}
{"target": "SRD5A3", "BNIP3L mRNA, set 1": 0.129}
{"target": "FGF9", "BNIP3L mRNA, set 1": 0.0858}
{"target": "FERMT2", "BNIP3L mRNA, set 1": 0.134}
{"target": "H3C2", "BNIP3L mRNA, set 1": 0.0699}
{"target": "SLC17A7", "BNIP3L mRNA, set 1": 0.126}
{"target": "MX2", "BNIP3L mRNA, set 1": 0.0525}
{"target": "BDP1", "BNIP3L mRNA, set 1": 0.383}
{"target": "GJA10", "BNIP3L mRNA, set 1": 0.123}
{"target": "TP73", "BNIP3L mRNA, set 1": 0.0606}
{"target": "MB", "BNIP3L mRNA, set 1": 0.065}
{"target": "DHTKD1", "BNIP3L mRNA, set 1": 0.144}
{"target": "TACSTD2", "BNIP3L mRNA, set 1": 0.0698}
{"target": "CDKN2A", "BNIP3L mRNA, set 1": 0.0921}
{"target": "IFT38", "BNIP3L mRNA, set 1": 0.126}
{"target": "ITLN1", "BNIP3L mRNA, set 1": 0.174}
{"target": "CTTN", "BNIP3L mRNA, set 1": 0.104}
{"target": "EIF6", "BNIP3L mRNA, set 1": 0.158}
{"target": "DNAJA2", "BNIP3L mRNA, set 1": 0.0712}
{"target": "KCNA10", "BNIP3L mRNA, set 1": 0.102}
